According to patent publication US10983112B2, “Bile acid biomarkers for Niemann-Pick diseases, methods and uses therefor” (Washington University, priority 2014, dated 2021):

Key:
[1] = NPC plasma vs controls; cited from earlier work
[2] = LC-MS/MS measurement of bile acids A and B in NPC1 and control dried blood spots (peak area); type: in vivo, human; settings: NPC1 vs control dried blood spots
[3] = LC-MS/MS profiling of bile acids in NPC1 and control plasma; type: in vivo, human; settings: NPC1 (n=12) vs control (n=11) plasma, peak area

| Compound | fold elevation in plasma of NPC1 subjects [1] [fold] | fold elevation in NPC dried blood spots compared to controls [2] [fold] | fold elevation in NPC1 plasma compared to controls [3] [fold] |
| --- | --- | --- | --- |
| CC(C)CCC[C@@H](C)[C@H]1CC[C@H]2[C@@H]3C(=O)C=C4C[C@@H](O)CC[C@]4(C)[C@H]3CC[C@]12C [7-ketocholesterol] | 10 |  |  |
| C[C@H](CCC(=O)O)[C@H]1CCC2C3C[C@@H](O)[C@@]4(O)C[C@@H](O)CC[C@]4(C)C3CC[C@@]21C (stereo partly drawn) [Bile acid A, 3β,5α,6β-trihydroxycholanic acid] |  | 12 |  |
| C[C@H](CCC(=O)NCC(=O)O)[C@H]1CC[C@H]2[C@@H]3C[C@@H](O)[C@@]4(O)C[C@@H](O)CC[C@]4(C)[C@H]3CC[C@]12C [Bile acid B, N-(3β,5α,6β-trihydroxy-cholan-24-oyl)glycine] |  | 101 | 144 |
| CC(C)CCC[C@@H](C)[C@H]1CC[C@H]2[C@@H]3C[C@@H](O)[C@@]4(O)C[C@@H](O)CC[C@]4(C)[C@H]3CC[C@]12C [cholestane-3β,5α,6β-triol] | 10 |  |  |

The amount applied is not stated for every result.
